No constants are given. Whether binding was seen depends on the method and setting. Binding seen in cells or lysates may run through a third protein. Binding calls can cover weak binding; strength is not graded here. Sequences can lack the tags named with a protein.
Biological target: T1, Axin-V5 (Drosophila) (UniProt Q9V407)
T1 sequence: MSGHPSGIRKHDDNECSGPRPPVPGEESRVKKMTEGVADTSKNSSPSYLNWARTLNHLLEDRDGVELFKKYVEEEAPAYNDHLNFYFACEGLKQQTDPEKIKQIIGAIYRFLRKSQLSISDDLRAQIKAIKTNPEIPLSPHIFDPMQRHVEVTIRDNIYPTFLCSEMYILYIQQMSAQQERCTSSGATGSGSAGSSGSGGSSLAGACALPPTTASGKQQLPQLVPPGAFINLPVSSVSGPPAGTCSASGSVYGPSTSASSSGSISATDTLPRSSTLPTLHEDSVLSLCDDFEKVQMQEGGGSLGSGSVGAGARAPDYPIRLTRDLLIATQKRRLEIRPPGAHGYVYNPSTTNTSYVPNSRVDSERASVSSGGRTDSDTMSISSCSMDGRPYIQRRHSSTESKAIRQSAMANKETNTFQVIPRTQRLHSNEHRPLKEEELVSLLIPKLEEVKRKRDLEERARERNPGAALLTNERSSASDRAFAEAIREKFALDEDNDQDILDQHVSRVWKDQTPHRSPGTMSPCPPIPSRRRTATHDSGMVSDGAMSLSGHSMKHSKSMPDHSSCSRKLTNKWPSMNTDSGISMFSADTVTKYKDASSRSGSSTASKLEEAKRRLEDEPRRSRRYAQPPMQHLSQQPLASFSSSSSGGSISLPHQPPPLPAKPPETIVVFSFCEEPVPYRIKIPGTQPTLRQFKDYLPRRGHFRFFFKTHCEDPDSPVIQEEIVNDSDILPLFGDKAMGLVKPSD
Test: co-IP; S2R+ cells transfected with Axin-V5 or AxinΔRGS-V5, treated 48 hours later with Wg CM for one hour; lysates (50mM Tris-HCl pH 8.0, 100mM NaCl, 1% NP-40, 10% glycerol, 1.5mM EDTA, 1uM ADP-HPD) with anti-V5 antibody overnight at 4°C, protein A/G-sepharose beads; immunoblot

- binding: binds
Substance: Apc (Drosophila (endogenous in S2R+))
